According to patent publication US10344037B2, “Use of the FL-one hundred eighteen core chemical structure platform to generate FL-one hundred eighteen derivatives for treatment of human disease” (priority 2014, dated 2019):
Some results were stated once for a whole list of compounds, not compound by compound.

Tested on: survivin, Mcl-1, XIAP, cIAP2
Assay type: cell-based, human
Details: FIG. 4

CC[C@@]1(O)C(=O)OCc2c1cc1n(c2=O)Cc2cc3c(CN(C)C)c(O)ccc3nc2-1 [Topotecan, topotecan]
less effective (than FL118) to inhibit the expression of survivin, Mcl-1, XIAP, cIAP2: at least 10 times
